In PubChem BioAssay AID493014 (National Center for Advancing Translational Sciences (NCATS), 2011):
This is one part of the list. Shown are side measurements of this screen, not its main read-out; they come without a call. Most of these compounds were active or inconclusive in the main read-out, so they are no random draw. Words in brackets tell the shape of the fitted curve; partial curves, single points and poor fits give uncertain potencies.

Test: qHTS Assay to Find Inhibitors of Chronic Active B-Cell Receptor Signaling
Conditions: ABC-DLBCL IkBa-CBG/CBR reporter, luminescence ratio (green luciferase fused to IkBa over red control in TMD8 lymphoma cells), 4 h
Outline: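 Compounds up to 46 uM were incubated four hours with TMD8 cells whose green CBG68 luciferase is fused to IkappaBalpha; red CBR luminescence normalised the signal, and concentration-effect curves were fitted to fusion, red and ratio data.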

[1] = measured here: CBR red luminescence, cell number
[2] = measured here: IkBa-CBG green luminescence

CCN/N=C(\Cc1nc2ccccc2[nH]1)c1ccccc1
AC50 [1]: 12.6 µM [falling, single point]

CC1CCCN(c2ccc(C(=O)NCc3ccco3)cc2[N+](=O)[O-])C1 (configuration not stated)
AC50 [1]: 3.26 µM [rising, full curve]

COc1ccc(N/N=C(/C(N)=O)C2=NC(C)(C)Cc3ccccc32)cc1
AC50 [1]: 9.2 µM [falling, partial curve]

CC(=O)Nc1ccc(NS(=O)(=O)c2cc(-c3n[nH]c(=O)c4ccccc34)ccc2C)cc1
AC50 [2]: 15.8 µM [falling, partial curve]

Cc1c(-c2cccc(Cl)c2)nc2ccccc2c1C(=O)OC/C(O)=C(\C#N)c1nc2ccccc2[nH]1
AC50 [1]: 4.47 µM [falling, partial curve, poor fit]

CN1CCN(C2OC(=O)c3ccccc32)CC1 (configuration not stated)
AC50 [1]: 29.1 µM [falling, single point]

COc1cccc(/C=C/C(=O)OCC(=O)NCc2ccco2)c1OC
AC50 [1]: 16.4 µM [rising, single point]

Cc1ccc(NC(=O)C(=O)NCc2ccc(/C=N/NC(=O)c3c(C)nc4ccccn34)o2)cc1
AC50 [1]: 0.461 µM [falling, full curve, poor fit]

CCN(CC)S(=O)(=O)c1cccc(C(=O)Nc2ccc(S(=O)(=O)NC3=NCCCCC3)cc2)c1
AC50 [1]: 10.3 µM [rising, partial curve, poor fit]

CNC(=S)N(CCc1c(C)[nH]c2ccc(Cl)cc12)Cc1cc(OC)c(OC)c(OC)c1
AC50 [1]: 14.6 µM [falling, single point] | AC50 [2]: 29.1 µM [rising, single point]

C=CC(=O)OCCOCCOCCOCCOC(=O)C=C
AC50 [1]: 14.6 µM [falling, single point]

O=C(c1ccc(F)cc1)C(CN1CCOCC1)c1ccccc1 (configuration not stated)
AC50 [1]: 14.1 µM [falling, partial curve, poor fit]

OCCC1CN(Cc2ccc(Oc3ncccn3)cc2)CCN1C1CCCC1 (configuration not stated)
AC50 [1]: 35.5 µM [rising, single point]

Cc1cc(C(=O)NN=C2CCCCC2)c2ccccc2n1
AC50 [1]: 29.1 µM [rising, single point]

O=C(CSc1ccccc1)N1CCc2ccccc21
AC50 [1]: 6.51 µM [rising, single point]

COc1ccc(OC)c(NC(=O)CCc2nnc3ccc(N4CCC(C)CC4)nn23)c1
AC50 [1]: 0.631 µM [rising, full curve, poor fit]

Cc1cc(O)c2/c(=N\N)c(-c3csc(C)n3)coc2c1
AC50 [1]: 22.4 µM [falling, partial curve, poor fit]

Cn1cccc1C(=O)NC(=O)COC(=O)c1ccccc1O
AC50 [1]: 0.231 µM [rising, full curve, poor fit]

CCOc1ccc2nc(NC(=O)CN3C(=O)C4CCCCC4C3=O)sc2c1 (configuration not stated)
AC50 [1]: 16.4 µM [falling, partial curve, poor fit]

CCOc1ccc2nc(NC(=O)CSc3cn[nH]n3)sc2c1
AC50 [2]: 12.6 µM [falling, partial curve, poor fit]

O=C(CN1C(=O)CSc2ccccc21)Nc1ccc2c(c1)OCCO2
AC50 [1]: 0.0411 µM [falling, full curve, poor fit]

C=CCOc1ccc2ccccc2c1/C=N/O
AC50 [1]: 4.11 µM [rising, full curve, poor fit]

Cc1ccc(C(=O)NC(=S)Nc2ccc(-c3cc4ccccc4oc3=O)cc2)c(C)c1
AC50 [1]: 0.00461 µM [rising, full curve, poor fit]

Fc1ccc(-c2ccc(Nc3cccc(F)c3)nn2)cc1
AC50 [1]: 7.94 µM [falling, partial curve, poor fit]

CCN(CC(=O)NCc1cccs1)C(=O)c1ccc(-c2ccccc2F)o1
AC50 [1]: 6.51 µM [rising, single point]

Cc1noc(C)c1S(=O)(=O)Nc1ccc(C(=O)Nc2ccc(OC(F)(F)F)cc2)cc1
AC50 [1]: 0.891 µM [falling, full curve, poor fit]

CCCCNC(=O)c1ccc2c(OCC)n(CCCC)nc2c1
AC50 [1]: 4.47 µM [rising, partial curve, poor fit]

CCC(=O)Nc1cccc(-c2nnc(SCC(=O)c3ccccc3)n2C)c1
AC50 [1]: 11.2 µM [falling, single point] | AC50 [2]: 31.6 µM [falling, partial curve, poor fit]

Cc1nc2nc(COc3ccccc3)[nH]n2c(=O)c1Cc1ccccc1
AC50 [1]: 1.84 µM [falling, full curve]

Cc1ccc(NCc2ccc(O)c3ncccc23)cc1
AC50 [1]: 11.2 µM [falling, partial curve, poor fit]

N#Cc1ccccc1OCC(=O)NC(=O)NCc1ccco1
AC50 [1]: 0.794 µM [falling, full curve, poor fit]

COc1cc(/C=C/C(=O)OCC(=O)NCc2ccccc2OC)ccc1O
AC50 [1]: 16.4 µM [falling, single point]

CC1Oc2ccccc2N(CC(=O)Nc2ccc3c(c2)OCCO3)C1=O (configuration not stated)
AC50 [1]: 3.55 µM [rising, single point]

COc1ccc(C(=O)c2ccc(Br)cc2)cc1
AC50 [1]: 0.398 µM [rising, full curve, poor fit]

Cc1ccc(S(=O)(=O)N2[C@@H](c3ccc(C(C)(C)C)cc3)C(C(=O)O)=CC[C@H]2c2ccc(Cl)cc2)cc1
AC50 [1]: 1.3 µM [rising, full curve]

CN(CCNC(=O)C1CCC(=O)N(Cc2ccc(Cl)cc2)C1)CCc1ccccc1 (configuration not stated)
AC50 [1]: 10 µM [falling, partial curve]

COc1cc2cc(-c3ccc(O)cc3O)nc(C)c2cc1OC
AC50 [1]: 3.16 µM [rising, single point] | AC50 [2]: 3.55 µM [falling, single point]

Cc1ccc(Cl)cc1NC(=O)CN1CCN(S(=O)(=O)N2CCOCC2)CC1
AC50 [1]: 4.47 µM [rising, single point]

Cc1cc(C)c2nc(SCC#N)cc(C)c2c1
AC50 [1]: 35.5 µM [rising, single point]

CC1CC(=O)NN=C1c1ccc(N(C)C)c([N+](=O)[O-])c1 (configuration not stated)
AC50 [1]: 4.11 µM [rising, full curve, poor fit]

COc1ccccc1-n1cnc2cc(C(=O)NCc3ccco3)ccc21
AC50 [1]: 13 µM [falling, partial curve]

CCN(CC)c1ccc2c(-c3ccc(S(=O)(=O)O)cc3S(=O)(=O)[O-])c3ccc(=[N+](CC)CC)cc-3oc2c1
AC50 [2]: 15.8 µM [rising, partial curve, poor fit]

Cc1occc1C(=O)Nc1cccc(C(=O)O)c1
AC50 [1]: 32.6 µM [falling, single point]

O=C(Nc1ccccc1Cl)c1csc(-c2cccnc2)n1
AC50 [1]: 35.5 µM [falling, single point]

COc1ccccc1-n1c(-c2ccc(NS(C)(=O)=O)cc2)n[nH]c1=S
AC50 [1]: 0.058 µM [falling, full curve, poor fit]

CCCOc1ccccc1C1NC(=O)NC(C)=C1C(=O)OCc1ccccc1 (configuration not stated)
AC50 [1]: 4.11 µM [falling, single point]

Cc1ccccc1C(=O)NC(=S)Nc1ccccc1C(=O)O
AC50 [1]: 10 µM [falling, partial curve]

O=C(O)c1cccnc1NC1CCCC1
AC50 [1]: 32.6 µM [rising, single point]

COc1ccc(N=Cc2nc(-c3ccco3)oc2O)cc1
AC50 [1]: 2.06 µM [falling, full curve, poor fit]

CSc1nc(C=Nc2ccccc2Cl)c(O)n1Cc1cccc(Cl)c1
AC50 [1]: 2.82 µM [falling, partial curve, poor fit]

COCC1CCCCN1C(=O)C1CCN(c2nc(-c3ccccc3)nc3c2CCC3)CC1 (configuration not stated)
AC50 [1]: 11.2 µM [falling, single point]

Nc1c(C(=O)NCc2ccco2)nnn1CC(=O)Nc1ccc2c(c1)OCO2
AC50 [1]: 14.1 µM [falling, partial curve, poor fit]

NC(=O)c1sc2cc(C(F)(F)F)cnc2c1-c1ccccc1
AC50 [1]: 5.62 µM [rising, single point]

COCCn1c(SCC(=O)/C=C2\N(C)c3ccccc3C2(C)C)nnc1-c1ccncc1
AC50 [1]: 10.3 µM [falling, partial curve, poor fit]

O=C(/C=C/c1cccc([N+](=O)[O-])c1)N1CCN(C(=O)c2ccco2)CC1
AC50 [1]: 20.6 µM [rising, partial curve, poor fit]

Cc1ccccc1C(=O)NNC(=O)CSc1nc2ccccc2c(=O)[nH]1
AC50 [1]: 11.2 µM [falling, partial curve]

O=C(CN1C(=O)C2CC=CCC2C1=O)OCC(=O)c1ccc(Cl)c([N+](=O)[O-])c1 (configuration not stated)
AC50 [1]: 25.1 µM [falling, single point]

O=C(NC(=S)Nc1ccccc1N1CCCCC1)c1ccc(F)cc1
AC50 [1]: 15.8 µM [rising, single point]

O=C(Cc1ccccc1)Nc1ccc2[nH]ncc2c1
AC50 [1]: 22.4 µM [falling, partial curve, poor fit]

c1cc(CNc2ccc3c(c2)OCO3)ccn1
AC50 [1]: 0.411 µM [rising, full curve, poor fit]

C=CCc1cc(/C=C2/NC(=O)N(CC(=O)OC)C2=O)cc(OC)c1O
AC50 [1]: 10 µM [falling, partial curve, poor fit]

O=C(c1csc2c1CCCC2)N1CCN(c2ncccn2)CC1
AC50 [1]: 3.66 µM [rising, partial curve, poor fit]

COC(=O)c1ccccc1NC(=O)c1ccc(-c2ccccc2F)o1
AC50 [1]: 0.058 µM [falling, full curve]

CC(C)c1cc(C(=O)NCCc2ccccc2)no1
AC50 [1]: 2.24 µM [falling, full curve]
